No constants are given. Whether binding was seen depends on the method and setting. In cells and extracts the contact can be indirect. Some binding calls cover weakened binding; strength is not graded here.
Legend:
[1] = target: Myc (c-myc), endogenous in glioblastoma stem cells (human (endogenous in GSCs)) (UniProt P01106); experiment: co-IP; GSC lysates, endogenous proteins; reciprocal immunoprecipitation with anti-Myc, anti-PRMT1 and anti-PRMT5 antibodies and control IgGs, western blot; also after 7 days in 2% FBS medium (Myc/PRMT1 kept)
[2] = target: Protein Arginine Methyltransferase 1 (PRMT1), endogenous in HEK293T cells (human (endogenous in HEK293T)) (UniProt Q99873); experiment: co-IP; HEK293T cells partially depleted of PRMT1 by siRNA, then transfected with FlagMyc; lysates immunoprecipitated with anti-PRMT1 antibody
[3] = target: Flag-tagged Myc (UniProt P01106); experiment: co-IP; FlagMyc/HEK293T lysates (140 mM NaCl, 10 mM Tris pH 7.6, 1% Triton X-100, 0.1% sodium deoxycholate, 1 mM EDTA); reciprocal immunoprecipitation with anti-Flag, anti-PRMT1 and anti-PRMT5 antibodies and control IgGs, western blot; also in cells given scrambled siRNA or siPRMT1 (PRMT5/FlagMyc kept)
[4] = target: Protein Arginine Methyltransferase 1 (PRMT1), endogenous in HEK293T cells (human (endogenous in HEK293T)) (UniProt Q99873); experiment: as above
[5] = target: Myc (c-myc), endogenous in glioblastoma stem cells (human (endogenous in GSCs)) (UniProt P01106); experiment: co-IP; GSCs differentiated for 7 days in 2% FBS medium, endogenous proteins; immunoprecipitation and western blot
[6] = target: Protein Arginine Methyltransferase 1 (PRMT1), endogenous in glioblastoma stem cells (human (endogenous in GSCs)) (UniProt Q99873); experiment: co-IP; GSC lysates, endogenous proteins; reciprocal immunoprecipitation with anti-Myc, anti-PRMT1 and anti-PRMT5 antibodies and control IgGs, western blot; also after 7 days in 2% FBS medium (Myc/PRMT1 kept)

Chains of the proteins cited; added tags and fusions are not shown.
UniProt P01106: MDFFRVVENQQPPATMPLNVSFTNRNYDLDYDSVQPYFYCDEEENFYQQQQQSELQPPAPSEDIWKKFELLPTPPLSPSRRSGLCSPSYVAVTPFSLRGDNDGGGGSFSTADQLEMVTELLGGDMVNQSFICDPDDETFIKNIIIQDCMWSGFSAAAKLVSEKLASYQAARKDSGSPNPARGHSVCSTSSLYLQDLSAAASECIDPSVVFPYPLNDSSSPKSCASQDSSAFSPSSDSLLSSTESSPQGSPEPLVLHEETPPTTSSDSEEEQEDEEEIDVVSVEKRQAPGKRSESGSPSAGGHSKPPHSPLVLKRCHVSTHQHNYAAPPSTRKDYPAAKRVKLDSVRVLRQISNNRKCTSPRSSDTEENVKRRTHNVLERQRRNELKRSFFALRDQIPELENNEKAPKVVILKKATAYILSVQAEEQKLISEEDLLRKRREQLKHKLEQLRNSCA
UniProt Q99873: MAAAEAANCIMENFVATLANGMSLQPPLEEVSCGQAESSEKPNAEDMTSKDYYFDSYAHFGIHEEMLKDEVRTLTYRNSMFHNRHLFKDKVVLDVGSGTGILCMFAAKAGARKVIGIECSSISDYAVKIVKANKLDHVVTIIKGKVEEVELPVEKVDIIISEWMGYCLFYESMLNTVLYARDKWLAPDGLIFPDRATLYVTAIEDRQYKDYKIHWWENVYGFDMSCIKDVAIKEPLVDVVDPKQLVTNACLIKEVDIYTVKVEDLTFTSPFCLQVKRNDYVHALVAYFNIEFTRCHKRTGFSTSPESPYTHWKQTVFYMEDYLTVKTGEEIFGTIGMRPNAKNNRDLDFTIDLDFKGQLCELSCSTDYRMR
UniProt O14744: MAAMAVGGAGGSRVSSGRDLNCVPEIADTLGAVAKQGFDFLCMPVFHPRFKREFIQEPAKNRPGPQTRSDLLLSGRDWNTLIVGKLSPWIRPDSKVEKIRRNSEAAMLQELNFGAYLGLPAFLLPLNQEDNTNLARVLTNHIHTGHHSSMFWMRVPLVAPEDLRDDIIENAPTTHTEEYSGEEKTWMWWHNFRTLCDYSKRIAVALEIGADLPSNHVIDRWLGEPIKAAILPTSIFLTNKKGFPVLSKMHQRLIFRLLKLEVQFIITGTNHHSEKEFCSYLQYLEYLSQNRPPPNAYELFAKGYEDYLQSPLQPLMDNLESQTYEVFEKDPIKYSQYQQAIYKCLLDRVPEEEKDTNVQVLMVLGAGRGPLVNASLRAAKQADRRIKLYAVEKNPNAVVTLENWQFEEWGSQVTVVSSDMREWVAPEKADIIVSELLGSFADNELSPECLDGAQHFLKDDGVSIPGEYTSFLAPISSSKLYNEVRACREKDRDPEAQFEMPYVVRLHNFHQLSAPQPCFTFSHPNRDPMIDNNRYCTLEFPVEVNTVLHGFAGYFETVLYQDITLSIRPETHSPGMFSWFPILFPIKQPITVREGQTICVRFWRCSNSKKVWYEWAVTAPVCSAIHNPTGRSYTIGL

| Substance | binding [1] | binding [2] | binding [3] | binding [4] | binding [5] | binding [6] |
| --- | --- | --- | --- | --- | --- | --- |
| Protein Arginine Methyltransferase 1 (PRMT1), endogenous in glioblastoma stem cells (from UniProt Q99873 1-371) (enzyme) | binds |  |  |  |  |  |
| Protein Arginine Methyltransferase 5 (PRMT5), endogenous in HEK293T cells (from UniProt O14744 1-637) (enzyme) |  | binds weakly | binds | binds |  |  |
| Protein Arginine Methyltransferase 5 (PRMT5), endogenous in glioblastoma stem cells (from UniProt O14744 1-637) (enzyme) | binds |  |  |  | binds weakly | binds |
